These results are taken from PubChem BioAssay AID2685 (National Center for Advancing Translational Sciences (NCATS), 2010).

The nature of the test: qHTS Assay for Lipid Storage Modulators in Drosophila S3 Cells.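 For cell number change: cells counted by Cell Tracker Red CMTPX staining in the red channel.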 The note with it: BODIPY lipid droplet fluorescence, 18-24 h; for cell number change: measured here: cell count max response, cells fed with added oleic acid. The procedure, abridged: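 Drosophila S3 cells got compounds at several concentrations plus oleic acid (400 uM solution). Laser-scanning cytometry with 488 nm excitation read lipid droplets at 500-530 nm and cells at 575-640 nm. Percent activity was relative to 20 uM Triacsin C.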

Where [1] appears, read: measured here: lipid fluorescence (Fed channel) AC50, cells fed with added oleic acid.
Setting [2] is: measured here: cell number channel AC50, cells fed with added oleic acid.

This is one part of the list. These are further read-outs of the screen, such as a control signal, another cell line or another target. No call is given for them. Compounds called inactive in the main read-out are mostly missing here. Words in brackets tell the shape of the fitted curve; partial curves, single points and poor fits give uncertain potencies.

With `COc1cccc(C(=O)Cn2c(NCCCO)nc3ccccc32)c1`, the cell number change came out at 13.5%. Besides, the AC50 under setting [1] is 29.1 µM [falling, single point].

As to `CC(=O)c1cccc(NC(=O)C(C)OC(=O)c2ccc(-n3cnnn3)cc2)c1` (centres undefined), the cell number change is -10.5%. For the same molecule, the AC50 under setting [1] is 0.206 µM [rising, partial curve, poor fit].

For `O=C(COC(=O)c1cccnc1)NC1CCCc2ccccc21` (centres undefined), the cell number change is 17.9%.

As for `CC(c1c(O)c2ccccc2[nH]c1=O)C1(C)CCC(O)C(C)(C)O1` (centres undefined), the cell number change is -20.8%. Besides, the half-maximal activity concentration (AC50) under setting [1] is 32.6 µM [falling, single point].

For `COc1ccc(NC(=O)Nc2ccc3c(c2)N(C)C(=O)CS3)cc1Cl`, the cell number change is -15.5%. For the same molecule, the half-maximal activity concentration (AC50) under setting [2] is 0.0731 µM [falling, full curve, poor fit]. For the same molecule, the AC50 under setting [1] is 0.164 µM [falling, partial curve, poor fit].

`CCN1CCN(c2cc(C)c3cc(NC(=S)N(C)Cc4ccccc4)ccc3n2)CC1`: the AC50 under setting [1] is 29.1 µM [rising, single point].

For `COc1ccccc1NC(=O)CN1C(=O)NC2(CCCCCCC2)C1=O`, the cell number change was -14.8%. Moreover, the AC50 under setting [1] was 7.08 µM [falling, full curve, poor fit].

As to `CCOC(=O)c1ccc(P(=O)(c2ccccc2)c2ccccc2)cc1`, the cell number change was 2.92%. For the same molecule, the AC50 under setting [1] was 20.6 µM [rising, single point].

On to `Cc1c(C(=O)N2CCCCC2)c(S(=O)(=O)NCCc2ccc(S(N)(=O)=O)cc2)c(C)n1C`, for which the cell number change worked out at 1.48%. Further, the AC50 under setting [1] is 0.651 µM [falling, single point].

Take `COc1ccccc1N1CCN(C(=O)c2sc3nc(-c4ccccc4)cn3c2C)CC1`: the cell number change stood at 18.8%.

With `Cc1cc(N2CCOCC2)nc2ccc(NC(=S)N3CCN(Cc4ccccc4)CC3)cc12`, the cell number change was -22.9%. Further, under setting [2], the AC50 is 0.411 µM [falling, full curve, poor fit].

As for `COC(=O)C1=C(Nc2ccc(OC)cc2)C=C(C)C(C(=O)OC)C1c1ccc(C)cc1` (centres undefined), the cell number change was -59.3%.

On to `CCCOc1cc(N(CC)CC)ccc1/C=C(/C#N)c1nc2ccc(C)cc2[nH]1`, for which the cell number change is -98.4%. Besides, the AC50 under setting [2] was 2.59 µM [falling, full curve]. Also, the AC50 under setting [1] was 0.411 µM [falling, full curve].

For the molecule `CCN1CCN(C2=C(NS(=O)(=O)c3ccc(Br)cc3)C(=O)c3ccccc3C2=O)CC1`, the cell number change was -18.6%. For the same molecule, the AC50 under setting [1] is 29.1 µM [falling, single point].

In the case of `Cc1ccc(-c2cc(C(=O)O)n[nH]2)s1`, the cell number change is -20.8%. Besides, the AC50 under setting [2] was 2.91 µM [falling, single point].

`O=C(c1cnc2n(c1=O)CCS2)N1CCN(c2ccc([N+](=O)[O-])cc2)CC1`: the cell number change is -0.613%. In addition, the AC50 under setting [2] was 1.64 µM [falling, partial curve, poor fit]. In addition, under setting [1], the AC50 was 7.31 µM [falling, partial curve].

For `CSc1nc2ccc(S(=O)(=O)N3CCCCC3)cc2s1`, the cell number change was 20.7%.

Turning to `CCOC(=O)CSc1cc(C)nc(NC(C)=O)n1`, the cell number change was found to be 1.78%. For the same molecule, the AC50 under setting [1] is 0.0731 µM [falling, full curve, poor fit].

Take `Cc1sc2ncnc(OCC(=O)NC(C)C)c2c1C`: under setting [1], the AC50 was 6.51 µM [falling, single point].

For the molecule `COc1cccc(OCc2cc(C(=O)N3CCN(c4ccccc4O)CC3)no2)c1`, the cell number change was -1.13%. In addition, the AC50 under setting [2] was 0.00411 µM [rising, full curve, poor fit]. Under setting [1], the half-maximal activity concentration (AC50) was 6.51 µM [rising, partial curve, poor fit].

Regarding `O=C(NC1CS(=O)(=O)CC1NCc1ccco1)c1ccccc1` (centres undefined), the cell number change is 30.6%. The AC50 under setting [2] was 29.1 µM [rising, single point]. For the same molecule, the AC50 under setting [1] is 4.11 µM [falling, full curve, poor fit].

Take `Clc1ccc(-c2nnc3sc(-c4ccc(Br)o4)nn23)cc1`: the cell number change came out at 88.2%. Also, the AC50 under setting [2] was 0.184 µM [rising, full curve, poor fit]. Besides, under setting [1], the AC50 is 0.206 µM [rising, full curve, poor fit].

Turning to `CC(=O)Nc1cccc(N2CCCC2=O)c1`, the cell number change turned out to be 3.94%. The AC50 under setting [1] was 32.6 µM [rising, single point].

Regarding `CCN1CCN(C(=O)c2ccccc2NS(=O)(=O)c2ccc(Cl)cc2)CC1`, the AC50 under setting [2] is 0.116 µM [rising, single point].

Take `CN1CCN(CCCNC(=O)c2ccc(Cn3c(=S)[nH]c4ccc(Br)cc4c3=O)cc2)CC1`: the cell number change came out at 1.68%.

In the case of `Cc1ccc(NC(=S)Nc2ccc(F)cc2)c(C)c1`, the cell number change was 60.7%. In addition, the AC50 under setting [2] is 16.4 µM [rising, single point].

Take `Cc1ccc(N2CC(C(=O)OCC(=O)c3ccc(C)c([N+](=O)[O-])c3)CC2=O)cc1` (centres undefined): the cell number change amounted to 14.8%. Besides, the AC50 under setting [1] is 1.16 µM [falling, full curve].

With `O=C(COC(=O)c1cncc(Br)c1)NCc1ccccc1Cl`, the cell number change worked out at 9.07%. The AC50 under setting [1] is 20.6 µM [falling, partial curve, poor fit].

As for `COC(=O)C1=C(C)OC(N)=C(C#N)C1c1cc2cc(C)ccc2nc1Cl` (centres undefined), the cell number change was -5.57%. Under setting [1], the AC50 was 0.058 µM [falling, full curve, poor fit].

On to `C[C@H](NC(=O)[C@@H]1Cc2ccccc2CN1)C(=O)Nc1ccc2c(c1)OCCO2`, for which the cell number change came out at 15.8%. Moreover, under setting [1], the concentration at half-maximal activity (AC50) was 0.326 µM [rising, partial curve, poor fit].

`O=C(NCCC(=O)N1CCN(c2cccc(Cl)c2)CC1)c1ccc(Br)cc1`: the cell number change was -14.9%. The AC50 under setting [1] was 4.11 µM [falling, partial curve, poor fit].

Consider `O=C(CSc1nnc(Cc2ccccc2)n1Cc1ccco1)NC1CCCC1`, for which the cell number change came to 29%.

`O=C(N/N=C/C=C/c1ccccc1)c1n[nH]c2c1CCC2`: the cell number change came out at 16.6%.

As to `COc1cc2ccccc2cc1C(=O)N1CCN(C)CC1`, the cell number change was 12.2%.

With `O=C(O)c1cccc(Cn2c(Cl)c(/C=N/NC(=O)c3cccc(O)c3)sc2=O)c1`, the cell number change is -8.52%. In addition, the AC50 under setting [1] was 0.731 µM [falling, full curve].

In the case of `CCN(CC)CCNC(=O)Cn1nc(Cc2ccccc2)c2ccccc2c1=O`, the cell number change stood at 0.503%. For the same molecule, the AC50 under setting [1] is 6.51 µM [falling, single point].

As to `Cc1ccc(S(=O)(=O)N2CCOC2CNC(=O)C(=O)NCCN(C)C)cc1` (centres undefined), the cell number change is -2.35%.

Turning to `Cc1ccccc1C(=O)NNC(=O)C1CCN(c2ncccn2)CC1`, the cell number change was -1.25%. For the same molecule, the AC50 under setting [1] was 0.103 µM [rising, single point].

Regarding `CCn1cc(CNCc2cn(-c3ccccc3C)nc2-c2ccc(OC)c(F)c2)cn1`, the cell number change came out at 3.68%.

For the molecule `COc1cccc(NC(=O)NNC(=O)CCc2ccc(O)c(O)c2)c1`, the cell number change turned out to be 42.9%. Also, the half-maximal activity concentration (AC50) under setting [2] was 29.1 µM [rising, single point]. Also, the half-maximal activity concentration (AC50) under setting [1] was 25.9 µM [rising, single point].

In the case of `C=C(C)CSc1nc2nc(C)c(Br)cc2[nH]1`, the cell number change was 30%. The AC50 under setting [1] was 4.61 µM [falling, partial curve, poor fit].

With `COC(CNC(=O)c1ccc2c(c1)ncn2-c1cccc(C)c1)OC`, the cell number change stood at 2.13%. Further, the AC50 under setting [1] was 11.6 µM [rising, partial curve].

Turning to `O=C1NC2(C=Cc3c(ccc4ccccc34)O2)Oc2ccccc21` (centres undefined), the cell number change came to 3.6%. Moreover, the concentration at half-maximal activity (AC50) under setting [2] was 3.66 µM [rising, single point].

On to `CCn1c2ccccc2c2cc(NC(=O)c3cc(OC)cc(OC)c3)ccc21`, for which the cell number change was found to be 12.1%. Besides, under setting [2], the AC50 is 1.16 µM [rising, partial curve]. Further, under setting [1], the AC50 is 1.46 µM [rising, partial curve].

In the case of `NC(=O)c1cccnc1Oc1ccccc1`, the cell number change is -8.72%. Besides, the AC50 under setting [2] is 6.51 µM [falling, single point].

Consider `CCN(CC)S(=O)(=O)c1ccc(C(=O)NCCN2C(=O)S/C(=C\c3cccnc3)C2=O)cc1`, for which the cell number change was 24.2%. Moreover, the AC50 under setting [1] is 23.1 µM [rising, single point].

For `Cc1noc2c1C(c1ccc(N(C)C)cc1)C1=C(CC(C)(C)CC1=O)N2` (centres undefined), the cell number change stood at 37.4%. The AC50 under setting [2] is 25.9 µM [rising, single point].

As for `Cc1nc(-c2nc(-c3c(C(=O)NNC(=O)c4ccc(Cl)cc4)noc3C)cs2)cs1`, the cell number change turned out to be 5.83%. For the same molecule, under setting [1], the AC50 was 29.1 µM [rising, single point].

Take `CCN(CC)C(=O)c1nc[nH]c1C(=O)N(C)Cc1ccccc1`: the cell number change was determined as 19.4%. Further, under setting [2], the AC50 was 3.26 µM [falling, single point]. The AC50 under setting [1] was 6.51 µM [falling, single point].

In the case of `Cc1[nH]c2c(C)cccc2c1CCNC(=O)c1ccc2c(c1[N+](=O)[O-])C(=O)c1ccccc1C2=O`, the cell number change was -54.8%. Moreover, the AC50 under setting [2] is 20.6 µM [falling, partial curve]. Moreover, the AC50 under setting [1] is 29.1 µM [falling, single point].

For `Cc1onc(-c2ccccc2Cl)c1C(=O)NNC(=O)c1ccc(F)cc1`, the AC50 under setting [1] is 0.116 µM [falling, single point].

In the case of `Cc1ccc2c(c1)N(CC(=O)N1CCC(C)CC1)C(=O)c1cccnc1O2`, the AC50 under setting [1] is 0.58 µM [rising, single point].

Consider `Cc1ccccc1C(=O)NCc1nnc(SCC(=O)N2CCN(c3ccccc3)CC2)n1C`, for which the cell number change was found to be 32.6%. Besides, the AC50 under setting [2] was 7.31 µM [rising, partial curve, poor fit].

`CCC(C)NS(=O)(=O)c1ccc(N)cc1` (centres undefined): the cell number change is -47.3%. Further, the AC50 under setting [2] was 0.184 µM [falling, full curve, poor fit]. Under setting [1], the concentration at half-maximal activity (AC50) was 0.00731 µM [falling, full curve].

`O=c1c(Cc2ccc(F)cc2)c(O)ccn1CCc1cnc[nH]1`: the cell number change is 45.6%. Besides, under setting [1], the concentration at half-maximal activity (AC50) is 6.51 µM [rising, single point].

Take `O=C(Nc1ccncc1)c1ccc(N2CCCC2=O)cc1`: the cell number change is 14.7%. The AC50 under setting [1] was 29.1 µM [falling, single point].

Turning to `COc1cc2cc(CN(Cc3cccnc3)C(=O)Nc3ccccc3)c(=O)[nH]c2cc1OC`, the cell number change was -19.8%. Further, the AC50 under setting [1] is 1.84 µM [falling, full curve, poor fit].

With `CC1(c2ccccc2Cl)NC(=O)N(CC(=O)Nc2ccccc2OC(F)F)C1=O` (centres undefined), the cell number change was -38.9%. Further, the concentration at half-maximal activity (AC50) under setting [2] is 6.51 µM [falling, partial curve, poor fit].

On to `CCOC(=O)c1[nH]c2ccc(Cl)cc2c1NC(=O)/C=C/c1ccc2c(c1)OCO2`, for which the cell number change is -30.4%. In addition, the AC50 under setting [2] is 5.17 µM [falling, partial curve].

A word on the AC50: it is the concentration giving half of the maximal activity seen.
